According to PMC7819943, “Rice protein-binding microarrays: a tool to detect cis-acting elements near promoter regions in rice”:
The list shows a part of the results.

By UniProt entry, the sequences of proteins in these tests, tags left out.
UniProt Q0JBA9, entry or part of it: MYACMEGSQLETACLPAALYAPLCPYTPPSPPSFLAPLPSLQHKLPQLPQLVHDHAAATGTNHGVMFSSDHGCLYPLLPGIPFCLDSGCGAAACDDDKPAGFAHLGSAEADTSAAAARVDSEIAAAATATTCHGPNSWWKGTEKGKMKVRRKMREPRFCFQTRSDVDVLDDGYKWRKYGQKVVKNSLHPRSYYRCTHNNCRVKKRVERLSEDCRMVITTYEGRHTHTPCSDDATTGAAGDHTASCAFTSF

target: OsWRKY34 (Oryza sativa, UniProt Q0JBA9 1-250); test: protein-binding microarray (RPBM); PBS, 2% BSA, 51.3 ng/ul salmon testes DNA, 50 uM zinc acetate, 200 nM TF, 25 C, 1 h; high values mean tight binding; conditions: protein: recombinant; tags: N-terminal polyhistidine and DsRed monomer fusion (pET32a); label: CyDye5-dUTP incorporated in the synthesized complementary strand; 3' TTTTT single-stranded linker to array surface; dsDNA, one strand shown
In short: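 The binding signal is fluorescence intensity per feature, in arbitrary units, read on an Axon 4000B scanner. Polyhistidine- and DsRed-tagged transcription factors (N-terminal fusions) from E. coli BL21-CodonPlus were purified on Ni–NTA and applied at 200 nM for 1 h at 25 °C to a double-stranded, BSA-blocked custom Agilent array in buffer with 50 µM zinc acetate.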

Row | Sequence | binding signal
1 | CTATCTTGTTTTTATTTCCACGTCCGCCACTGATTGACTACGGAGTCACCTAGTGCAG | 12000 fluorescence intensity (a.u.)
2 | GGACGGGGAGGTGGGGCGCGGCGGCGATGATACTGGTGGCCGGAGTCACCTAGTGCAG | 10300 fluorescence intensity (a.u.)
3 | GGATGTGTTTGGTTGCATGCCTCAGAACGTATCAGATTCGCGGAGTCACCTAGTGCAG | 8460 fluorescence intensity (a.u.)
4 | TGTACAGTAGTCATGTTTTGGGATTCTCTGTTTTTTTTTGCGGAGTCACCTAGTGCAG | 8770 fluorescence intensity (a.u.)
5 | CCATCCTGTGAGCCTCATAACTCTCGTCCTGTCTTTGCTACGGAGTCACCTAGTGCAG | 12100 fluorescence intensity (a.u.)
6 | GCGGGTGGGTCTAGAGATTTTTTTTATTTGTTAATTGGATCGGAGTCACCTAGTGCAG | 10400 fluorescence intensity (a.u.)
7 | TTCTAAATCGTAACCATTGTGTGTGTGTGTGGACATTTTCCGGAGTCACCTAGTGCAG | 10800 fluorescence intensity (a.u.)
8 | GTTTCCTACTGTCCATTCTCTTGTACCTGTGATCCACATTCGGAGTCACCTAGTGCAG | 8980 fluorescence intensity (a.u.)
9 | CCGTCGCTCGCTCCGGCCACTGTCCGCCCCGCTCCAATGCCGGAGTCACCTAGTGCAG | 8780 fluorescence intensity (a.u.)
10 | TTAATCTGTTACTACCATACACACCTATGCACTAAAATCACGGAGTCACCTAGTGCAG | 8250 fluorescence intensity (a.u.)
11 | GCTTTTTTGGTTCCGGATCGCATGTAACTTTTTTTTTATTCGGAGTCACCTAGTGCAG | 11700 fluorescence intensity (a.u.)
12 | AACCAGTCGCCGCTCGCCACGTGGCACCCTCCACCTCCCTCGGAGTCACCTAGTGCAG | 8250 fluorescence intensity (a.u.)
13 | CTGTTTTGTTCTTTCTTTTTTTTTCTTTTCTCCATATAAGCGGAGTCACCTAGTGCAG | 12300 fluorescence intensity (a.u.)
14 | AACTATTTTTTTATGGGTTTGTTGTGTAGATCATGTAGCACGGAGTCACCTAGTGCAG | 11100 fluorescence intensity (a.u.)
15 | CCTTAGTCCTAGCTGTCGCCCTCCGTCTCATTCAGTCCTCCGGAGTCACCTAGTGCAG | 9220 fluorescence intensity (a.u.)
16 | GGTAGCGCCTTGCCATTCACTGCGCAGAGCTTGCAAGCTTCGGAGTCACCTAGTGCAG | 10100 fluorescence intensity (a.u.)
17 | GTCGCTTTGGTTCAGATATTTCATTGGATTTTGCCTTGCCCGGAGTCACCTAGTGCAG | 8750 fluorescence intensity (a.u.)
18 | TCACCATGCACCATGGATCCCAATCTTGCCTTTTTCTTCTCGGAGTCACCTAGTGCAG | 8710 fluorescence intensity (a.u.)
19 | GGCGTTTGCAACGTTGTCATGATTTTTTTTTTTTTTGGAACGGAGTCACCTAGTGCAG | 8980 fluorescence intensity (a.u.)
20 | GTAGTATTGTGTTTTGCAAGGAAGGAACAAGCCTTTAATTCGGAGTCACCTAGTGCAG | 8380 fluorescence intensity (a.u.)
21 | ACCCTTCGTCACCCCTAACCCTAGGCTGAGTCATTCTCTTCGGAGTCACCTAGTGCAG | 8460 fluorescence intensity (a.u.)
22 | ATCTAGCCTATCGCTCTTGTGTTCTCGGTGTGTACTTGGTCGGAGTCACCTAGTGCAG | 16600 fluorescence intensity (a.u.)
23 | TCTTCACCGGCTGGGTTGTCGTTGCAGCTCGCCGGCACACCGGAGTCACCTAGTGCAG | 8420 fluorescence intensity (a.u.)
24 | GTGTCATCGTTGCTGGTCGCCTGATCGATCCCTGATGCTACGGAGTCACCTAGTGCAG | 9170 fluorescence intensity (a.u.)
25 | ATTTGAATACAGTTTTGTTTTGTTGTCTAGATTCAGGGATCGGAGTCACCTAGTGCAG | 8640 fluorescence intensity (a.u.)
26 | CCGCTCAGGATATCGTCTTGTTTTTCATATTCCCCATCTCCGGAGTCACCTAGTGCAG | 11800 fluorescence intensity (a.u.)
27 | TTGGTTTTCCGGCCGTTTTCGATCGCCTGACGCCCAGGAACGGAGTCACCTAGTGCAG | 9590 fluorescence intensity (a.u.)

As entered above:
binding signal with CTATCTTGTTTTTATTTCCACGTCCGCCACTGATTGACTACGGAGTCACCTAGTGCAG reads 12000 fluorescence intensity (a.u.)
binding signal with TCTTCACCGGCTGGGTTGTCGTTGCAGCTCGCCGGCACACCGGAGTCACCTAGTGCAG reads 8420 fluorescence intensity (a.u.)

(list continues)

Row | Sequence | binding signal
28 | ACTACAACGAGTACCTCTCCCACTACATTGGCCTGCATCTCGGAGTCACCTAGTGCAG | 9690 fluorescence intensity (a.u.)
29 | ACACCTTTCTCGTCTCTACTTCCTTTGGTCATTTTGTCTCCGGAGTCACCTAGTGCAG | 14200 fluorescence intensity (a.u.)
30 | TCATTCTAGCATTTCCCACATTCTATCTAGATTCATTAACCGGAGTCACCTAGTGCAG | 10100 fluorescence intensity (a.u.)
31 | ATGGCCGCTGTCTTATGTCGTCTCGTTCAAATAAAATCTCCGGAGTCACCTAGTGCAG | 8370 fluorescence intensity (a.u.)
32 | GTTGCCCAAGTTGGTCGTCGGAAGGCTGGAACCTAAGTTACGGAGTCACCTAGTGCAG | 8150 fluorescence intensity (a.u.)
33 | ACGCCACGCGCGCGAGCGAGCACTAGCGATCGATCAGGCCCGGAGTCACCTAGTGCAG | 9390 fluorescence intensity (a.u.)
34 | TGAATCATAGTTAGGATTGTGTTTTTTCTTTCTTTTTACACGGAGTCACCTAGTGCAG | 8250 fluorescence intensity (a.u.)
35 | GGCAACAACGGCCTCCACCGCCATCACTCCGGCACCCTCACGGAGTCACCTAGTGCAG | 8220 fluorescence intensity (a.u.)
36 | GTCTTCTCTCGTAGTCGGGTCTTCCTGTCGTCGGGTTCTTCGGAGTCACCTAGTGCAG | 11100 fluorescence intensity (a.u.)
37 | GCTCCCTGCTGCCATATCCTATCATCTCCTCTCTTCCTCTCGGAGTCACCTAGTGCAG | 8540 fluorescence intensity (a.u.)
38 | ATCCGTTGCCCTCGCTCCTATAACTGCGTTGACATGTCGCCGGAGTCACCTAGTGCAG | 9550 fluorescence intensity (a.u.)
39 | GGAATGGGGCATTGTCTAGTCCATGATTAGGTTGGTTTTTCGGAGTCACCTAGTGCAG | 12000 fluorescence intensity (a.u.)
40 | CCCTAAGTTACATTCTCTACAATATTGTTCTCCAAAATTCCGGAGTCACCTAGTGCAG | 8080 fluorescence intensity (a.u.)
41 | ACCAATATTCCATACTTAAATTTAATGCTACTTATCTCACCGGAGTCACCTAGTGCAG | 8230 fluorescence intensity (a.u.)
42 | GAACTAACGCGCTTCTCATTTTCATACTCACCATCAAATACGGAGTCACCTAGTGCAG | 8200 fluorescence intensity (a.u.)
43 | AATTTGTTTCCGCCGCTGCTGCACGCGCCGTGAGGCGTGACGGAGTCACCTAGTGCAG | 8480 fluorescence intensity (a.u.)
44 | CCCCACAGCGCAGTGTCCCACGCGGCCAGCACGCACTCTCCGGAGTCACCTAGTGCAG | 8400 fluorescence intensity (a.u.)
45 | GCCCATCTCTTATTCCTCGTACCCCTTTTTTTTTTTTGCCCGGAGTCACCTAGTGCAG | 9180 fluorescence intensity (a.u.)
46 | CCATCATTAATAGTTCTGGACCATCCAATATATACTGTCTCGGAGTCACCTAGTGCAG | 8840 fluorescence intensity (a.u.)
47 | ACTCCACACCCACACTACTCCTCCCAGGCTGCCTGCCTAACGGAGTCACCTAGTGCAG | 9330 fluorescence intensity (a.u.)
48 | GGTTGAACTGAATCATATCAAAGCCAGGTCAACACAGAAACGGAGTCACCTAGTGCAG | 9340 fluorescence intensity (a.u.)
49 | CCGTGTCCGTTATCGTCCGTCGGTTTCCGTGTCCGATTCTCGGAGTCACCTAGTGCAG | 9950 fluorescence intensity (a.u.)
50 | ATTATCCTGATCAAAATTCCCGCAATTCCTTAACACATGTCGGAGTCACCTAGTGCAG | 10200 fluorescence intensity (a.u.)
51 | ATCGCTACTCCTTTTTTTTTTTGGAAAAATATCCAAAAATCGGAGTCACCTAGTGCAG | 8130 fluorescence intensity (a.u.)
52 | GCAAAAGCCAAACTGAATTCCCGACGCGTGCGCGCGCGCACGGAGTCACCTAGTGCAG | 8180 fluorescence intensity (a.u.)
53 | TTAGGATTCTAGTATTAGCCTTTTCGTTATCGTTGACCAACGGAGTCACCTAGTGCAG | 13300 fluorescence intensity (a.u.)
54 | TCTCACATGTTTGACCATTCGCCTTATTCAAAAATTTTATCGGAGTCACCTAGTGCAG | 12300 fluorescence intensity (a.u.)
